System: H3.3 K27M mutant DIPG cells
Test: Survival assay, patient derived H3.3 K27M mutant DIPG cells
Type: cell-based, human
Details: combined with ionizing radiation; concentration not given
Method: Survival assays. To determine the sensitivity of cells to NHEJ inhibitors, IDH inhibitors, HATi or HDACi in combination with ionizing radiation, 25,000 cells were seeded per well in triplicate in 12-well cell culture plates in the presence of the indicated NHEJ inhibitors. Following reattachment of the cells to the bottom of the culture plate, they were irradiated with the indicated doses of X-rays using an X-Rad 320 irradiator (Precision X-Ray). Accurate X-ray dose delivery was determined using UNIDOS E dosimeter. Surviving cells were measured 7 days post-irradiation by first dissociating the cells with trypsin and then counting them on a Z3 Coulter counter (Beckman-Coulter). Experiments were typically repeated at least 3 times.

## O=C(CCCCCCC(=O)Nc1ccccc1)NO [Vorinostat]
  survival of H3 K27M mutant cancer cells, inhibitor with ionizing radiation: synergistic with ionizing radiation
